This is one part of the list. The main result of the screen is listed elsewhere. These columns were measured beside it and carry no call. The list favours compounds with an active or inconclusive main result. Potencies come from curve fits of mixed quality, noted in brackets.
Assay: qHTS Assay for Lipid Storage Modulators in Drosophila S3 Cells;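 on cell number change: cells counted by Cell Tracker Red CMTPX staining in the red channel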
Settings: BODIPY lipid droplet fluorescence, 18-24 h; for cell number change: measured here: cell count max response, cells fed with added oleic acid
In short: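 Drosophila S3 cells got compounds at several concentrations plus oleic acid (400 uM solution). Laser-scanning cytometry with 488 nm excitation read lipid droplets at 500-530 nm and cells at 575-640 nm. Percent activity was relative to 20 uM Triacsin C.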

[1] = measured here: lipid fluorescence (Fed channel) AC50, cells fed with added oleic acid
[2] = measured here: cell number channel AC50, cells fed with added oleic acid

Compound | AC50 [1] | cell number change | AC50 [2]
CCOC(=O)N1CCN(C(=O)CN(c2cccc(C)c2)S(=O)(=O)c2ccc(C)cc2)CC1 | 6.51 µM [falling, partial curve] |  | 
O=C(NC1CCCC1)c1cc(COc2ccc3ncccc3c2)on1 | 23.1 µM [falling, single point] | -19.9% | 
COc1cc(C(C)=O)ccc1Oc1ccc(S(=O)(=O)N2CCOCC2)cn1 |  | -8.27% | 
CCOc1ccc(Cn2nnc(C(=O)Nc3cc(C)cc(C)c3)c2N)cc1 | 29.1 µM [rising, single point] |  | 
COc1ccc(CN2Cc3cccc4c3[C@@H](CC2=O)[C@H](O)[C@H](O)C4)cc1 | 29.1 µM [rising, single point] | 6.38% | 
O=C(CSc1nnc(Cc2ccccc2)o1)N1CCCC1 | 0.731 µM [falling, single point] | 20.7% | 
Cc1nn(-c2ccc(N3CCCCC3)nn2)c(C)c1CCC(=O)Nc1ccc(F)c(F)c1 | 0.184 µM [falling, full curve, poor fit] | 10.1% | 
CCOC(=O)Cn1c(=O)oc2cc(S(=O)(=O)NCCc3ccc(OCC)c(OCC)c3)ccc21 | 20.6 µM [rising, single point] | 71% | 
CCC(C)c1ccc(C2C3=C(Nc4nc(N)[nH]c(=O)c42)c2ccccc2C3=O)cc1 (configuration not stated) |  | -14.7% | 
C/C(=N\NC(=O)CNC(=O)c1cccc(F)c1)c1ccc2ccccc2c1 |  | 74.4% | 1.64 µM [falling, single point]
COC(=O)[C@@H]1[C@@H](C#N)C2(c3ccccc3-c3ccccc32)N(c2ccc(Cl)cc2)N1C#N | 20.6 µM [falling, partial curve] | -74% | 23.1 µM [falling, single point]
COc1ccc(C(=O)NCC(=O)NCC2(N(C)C)CCCCC2)cc1OC | 0.82 µM [rising, full curve, poor fit] | -41.1% | 9.2 µM [falling, partial curve, poor fit]
COc1ccc(N/N=C(/Oc2ccc([N+](=O)[O-])cc2)C(C)=O)cc1 | 18.4 µM [falling, single point] | -47% | 20.6 µM [falling, single point]
CN(C)C(CNS(=O)(=O)c1ccc(Cl)cc1)c1cccnc1 (configuration not stated) | 1.16 µM [rising, full curve] | 32.2% | 0.92 µM [rising, full curve, poor fit]
O=C1CSC(c2ccccc2)N1CCc1ccccc1 (configuration not stated) | 5.8 µM [rising, single point] | -5.84% | 
Cc1ccc(C(=O)NC(C)c2ccc(-n3ccnc3)cc2)cc1S(=O)(=O)N1CCOCC1 (configuration not stated) |  |  | 0.116 µM [rising, full curve, poor fit]
COc1ccc(NC(=O)c2cccc(S(=O)(=O)NCc3ccco3)c2)c(OC)c1 | 0.259 µM [rising, partial curve, poor fit] |  | 
CC/C(=C\C(=O)c1ccncc1)Nc1ccc(O)cc1 |  | -14.9% | 
CCOc1ccc(OCC)c(NC(=O)C2CCCN(S(=O)(=O)c3ccc(C)cc3)C2)c1 (configuration not stated) | 18.4 µM [rising, single point] | 19.7% | 

Compound | AC50 [1] | cell number change | AC50 [2]
O=C(Nc1ccc(Cl)cn1)c1cccnc1 | 6.51 µM [falling, single point] | 22.7% | 
Cc1ccc(NC(=O)C2C3CCCCC32)cc1[N+](=O)[O-] (configuration not stated) | 20.6 µM [rising, partial curve] | -0.549% | 
O=C(NC1CCN(C(=S)Nc2ccccc2)CC1)C1CCCCC1 | 29.1 µM [rising, single point] | 5.41% | 
CCN1C=C(Cc2ccccc2C)C2=C(C1)C(c1ccccc1C)C(C#N)=C(N)O2 (configuration not stated) | 0.92 µM [rising, full curve, poor fit] | -37.5% | 
COC(CNC(=O)c1cc(C)nn1-c1ccccc1)OC | 29.1 µM [rising, single point] | 109% | 29.1 µM [rising, single point]
O=C(O)CCC(=O)c1ccc(-c2ccccc2)cc1 | 0.731 µM [falling, full curve, poor fit] | 12.4% | 
CNc1sc(C(=O)c2cccs2)c(N)c1-c1nc2ccccc2s1 |  | -19.8% | 
CC(C)(C)OC(=O)NC(Cc1ccccc1)C(=O)N1CCC(C(=O)NCC(=O)Nc2ccc(F)cc2)CC1 (configuration not stated) |  | -0.472% | 
CCOC(=O)c1ccc(NC=C2C(=O)OC3(CCCCC3)OC2=O)cc1 | 6.51 µM [falling, single point] | -9.96% | 
O=C(Nc1cccc(-c2cccc(Cl)c2)c1)C1CCN(Cc2ccc(CO)o2)CC1 | 29.1 µM [rising, single point] | -17.8% | 
CCc1ccc(NC(=O)CSc2nc3cc(C(=O)OC)ccc3c(=O)n2Cc2ccco2)cc1 |  | -29.7% | 0.82 µM [falling, full curve, poor fit]
O=C(NCCS(=O)(=O)N1CCN(c2ccccc2F)CC1)c1cccs1 | 2.91 µM [rising, single point] |  | 6.51 µM [rising, single point]
O=C1CCN(Cc2ccc(Br)cc2)CCN1CCO |  | 5.39% | 
Cc1ccc(C(=O)Nc2oc(-c3ccccc3)cc2C#N)cc1 | 4.61 µM [rising, single point] | 1.23% | 
CCOCCCNC(=S)N1CCN(c2nc(-c3ccccc3)cs2)CC1 |  | -42.9% | 18.4 µM [falling, single point]
Oc1ccccc1/C=N/N1CCN(c2ccccn2)CC1 | 0.58 µM [rising, single point] | 9.07% | 
Cc1cc(C(C)(C)C)cc(C)c1C(=O)O | 18.4 µM [falling, partial curve, poor fit] | -47.7% | 16.4 µM [falling, single point]
CC(C)CN1C(=O)c2ccc(C(=O)Nc3ccccc3C(=O)O)cc2C1=O |  | -36.2% | 32.6 µM [falling, single point]
O=C(COC(=O)c1n[nH]c2ccccc12)c1cccc(Br)c1 | 29.1 µM [rising, single point] | 26.5% | 

An excerpt from above in order of molecular weight, smallest number first:
Compound | AC50 [1] | cell number change | AC50 [2]
Cc1ccc(C(=O)Nc2oc(-c3ccccc3)cc2C#N)cc1 | 4.61 µM [rising, single point] | 1.23% | 
O=C(NC1CCN(C(=S)Nc2ccccc2)CC1)C1CCCCC1 | 29.1 µM [rising, single point] | 5.41% | 
CC(C)(C)OC(=O)NC(Cc1ccccc1)C(=O)N1CCC(C(=O)NCC(=O)Nc2ccc(F)cc2)CC1 (configuration not stated) |  | -0.472% | 
